These results are taken from publication PMC10821535.

Protein sequences, listed by entry. Tags and fused reporters are not part of them. Lines headed by an entry give the natural chain unless they say otherwise; changes in a name come on top.
UniProt B2RWS6: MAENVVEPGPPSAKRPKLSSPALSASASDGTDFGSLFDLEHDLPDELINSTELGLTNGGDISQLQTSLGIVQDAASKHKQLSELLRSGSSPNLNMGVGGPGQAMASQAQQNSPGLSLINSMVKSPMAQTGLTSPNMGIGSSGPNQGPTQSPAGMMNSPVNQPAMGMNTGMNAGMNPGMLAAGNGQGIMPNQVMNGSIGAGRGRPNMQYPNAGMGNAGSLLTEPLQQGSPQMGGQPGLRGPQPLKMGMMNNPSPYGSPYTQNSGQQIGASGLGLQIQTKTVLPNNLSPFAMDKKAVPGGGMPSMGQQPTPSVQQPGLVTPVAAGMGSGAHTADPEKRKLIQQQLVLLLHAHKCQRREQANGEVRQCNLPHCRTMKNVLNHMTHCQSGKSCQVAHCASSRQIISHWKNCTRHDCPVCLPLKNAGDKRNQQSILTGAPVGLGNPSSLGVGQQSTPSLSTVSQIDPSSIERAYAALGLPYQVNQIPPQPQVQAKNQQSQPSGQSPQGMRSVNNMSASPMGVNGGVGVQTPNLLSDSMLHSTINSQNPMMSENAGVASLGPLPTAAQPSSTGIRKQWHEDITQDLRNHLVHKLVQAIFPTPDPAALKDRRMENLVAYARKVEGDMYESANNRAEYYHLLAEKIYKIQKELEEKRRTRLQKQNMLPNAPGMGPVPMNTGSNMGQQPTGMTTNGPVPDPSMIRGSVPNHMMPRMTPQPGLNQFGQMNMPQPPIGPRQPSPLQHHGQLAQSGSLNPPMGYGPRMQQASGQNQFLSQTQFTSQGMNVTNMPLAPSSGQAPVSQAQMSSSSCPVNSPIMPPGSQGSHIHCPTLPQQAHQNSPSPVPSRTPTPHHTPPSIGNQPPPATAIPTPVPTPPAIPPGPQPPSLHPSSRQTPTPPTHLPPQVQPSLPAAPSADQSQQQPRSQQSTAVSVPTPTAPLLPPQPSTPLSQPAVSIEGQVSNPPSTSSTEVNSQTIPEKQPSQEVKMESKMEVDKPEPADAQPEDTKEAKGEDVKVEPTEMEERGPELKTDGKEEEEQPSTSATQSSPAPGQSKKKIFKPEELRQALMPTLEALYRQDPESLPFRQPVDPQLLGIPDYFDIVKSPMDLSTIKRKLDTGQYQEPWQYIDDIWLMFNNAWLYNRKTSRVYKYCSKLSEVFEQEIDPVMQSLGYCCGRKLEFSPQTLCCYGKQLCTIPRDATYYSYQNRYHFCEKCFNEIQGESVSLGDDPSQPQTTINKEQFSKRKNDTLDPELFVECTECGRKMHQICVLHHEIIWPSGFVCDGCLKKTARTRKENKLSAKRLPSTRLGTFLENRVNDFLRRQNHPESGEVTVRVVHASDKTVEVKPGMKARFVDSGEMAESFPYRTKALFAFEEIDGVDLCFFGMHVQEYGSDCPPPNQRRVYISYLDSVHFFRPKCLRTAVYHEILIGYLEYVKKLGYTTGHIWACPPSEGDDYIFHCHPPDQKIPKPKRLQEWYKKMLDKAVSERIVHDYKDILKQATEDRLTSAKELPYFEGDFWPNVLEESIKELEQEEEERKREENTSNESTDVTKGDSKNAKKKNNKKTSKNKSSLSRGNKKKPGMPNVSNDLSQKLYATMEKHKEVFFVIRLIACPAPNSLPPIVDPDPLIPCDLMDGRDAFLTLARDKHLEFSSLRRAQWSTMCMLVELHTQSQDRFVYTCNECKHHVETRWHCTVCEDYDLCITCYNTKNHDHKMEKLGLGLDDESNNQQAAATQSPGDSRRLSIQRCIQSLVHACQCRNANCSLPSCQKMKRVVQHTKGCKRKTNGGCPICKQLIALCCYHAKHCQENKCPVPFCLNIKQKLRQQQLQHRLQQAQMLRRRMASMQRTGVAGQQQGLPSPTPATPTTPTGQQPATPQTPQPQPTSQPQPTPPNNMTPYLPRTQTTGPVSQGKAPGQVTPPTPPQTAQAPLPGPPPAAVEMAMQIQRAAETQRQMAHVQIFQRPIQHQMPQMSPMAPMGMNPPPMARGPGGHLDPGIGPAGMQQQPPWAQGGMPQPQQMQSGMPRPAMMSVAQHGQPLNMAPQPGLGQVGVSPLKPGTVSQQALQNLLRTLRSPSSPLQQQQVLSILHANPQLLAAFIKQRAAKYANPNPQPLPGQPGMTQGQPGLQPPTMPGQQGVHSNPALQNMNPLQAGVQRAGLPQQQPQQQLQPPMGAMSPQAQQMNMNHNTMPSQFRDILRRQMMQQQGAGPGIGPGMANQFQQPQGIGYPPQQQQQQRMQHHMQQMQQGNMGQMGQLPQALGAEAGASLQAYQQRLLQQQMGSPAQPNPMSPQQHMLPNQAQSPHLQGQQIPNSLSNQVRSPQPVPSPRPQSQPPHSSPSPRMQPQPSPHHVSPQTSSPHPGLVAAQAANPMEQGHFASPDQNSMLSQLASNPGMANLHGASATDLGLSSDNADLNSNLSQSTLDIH
UniProt P53566: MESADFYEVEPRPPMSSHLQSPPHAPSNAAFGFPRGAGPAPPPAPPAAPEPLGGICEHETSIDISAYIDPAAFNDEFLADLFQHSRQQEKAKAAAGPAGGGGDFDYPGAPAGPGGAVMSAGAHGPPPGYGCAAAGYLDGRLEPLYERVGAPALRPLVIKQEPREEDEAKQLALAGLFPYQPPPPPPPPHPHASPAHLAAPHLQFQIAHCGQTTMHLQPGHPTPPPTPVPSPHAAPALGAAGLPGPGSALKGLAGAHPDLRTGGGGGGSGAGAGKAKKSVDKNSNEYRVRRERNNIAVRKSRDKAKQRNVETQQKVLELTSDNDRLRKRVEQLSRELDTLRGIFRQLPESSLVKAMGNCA

No constants are given. Whether binding was seen depends on the method and setting. In cells and extracts the contact can be indirect. Some results given as binding are weak or reduced against the parent protein; the word gives no strength.

This test deals with histone acetyltransferase p300 (mouse (endogenous in liver)) (UniProt B2RWS6). Briefly: co-IP; p300 immunoprecipitated from liver extracts (whole cell and nuclear) of offspring of WT and C/EBPα-S193A mice, Western blot with antibodies to C/EBPα; TrueBlot reagents; four diet arms (NN, NH, HN, HH), two animals of each arm. (In general: A western blot detects proteins with antibodies after separation by electrophoresis.)

In the case of “C/EBPα-S193A (from UniProt P53566 1-359)”, the binding entry is recorded as “no binding”.

“ph-S193-C/EBPα (from UniProt P53566 1-359)”: the binding result is on record as “binds”.
